Measurements taken from patent US20210371529A1.
Results are given in words; binding and its absence hold for the method and conditions named. Some binding calls cover weakened binding; strength is not graded here.

Sequences of proteins named here, by UniProt entry; tags and fusion partners are left off. Residues count along the entry.
UniProt Q61790, residues 24-521: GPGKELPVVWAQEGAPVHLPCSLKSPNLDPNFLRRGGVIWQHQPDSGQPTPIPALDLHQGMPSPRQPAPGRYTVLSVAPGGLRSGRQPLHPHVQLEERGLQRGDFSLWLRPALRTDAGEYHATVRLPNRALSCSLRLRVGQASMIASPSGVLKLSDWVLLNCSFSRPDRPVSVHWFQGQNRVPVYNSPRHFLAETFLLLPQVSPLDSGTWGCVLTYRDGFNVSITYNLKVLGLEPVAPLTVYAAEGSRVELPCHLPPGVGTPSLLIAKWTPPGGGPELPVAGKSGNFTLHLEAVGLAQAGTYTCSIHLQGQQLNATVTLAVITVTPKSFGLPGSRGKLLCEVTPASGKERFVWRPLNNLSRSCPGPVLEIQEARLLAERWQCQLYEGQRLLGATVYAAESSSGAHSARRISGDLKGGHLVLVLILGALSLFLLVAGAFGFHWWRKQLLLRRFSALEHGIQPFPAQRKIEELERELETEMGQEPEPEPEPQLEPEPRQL

Legend:
[1] = biological target: mouse LAG-3 overexpressed on CHO cells (mouse) (UniProt Q61790); assay: flow cytometry on CHO-mLAG-3 cells
[2] = biological target: mouse LAG-3 overexpressed on CHO cells (mouse) (UniProt Q61790); assay: flow cytometry (MFI) on CHO cells overexpressing mouse LAG-3, PE goat anti-human IgG

B1: ADI-31851 (antibody, human IgG4 S228P, kappa, F234A L235A, V domains shown)
VH: QLQLQESGPGLVKPSETLSLTCTVSGGSISSPDYYWGWIRQPPGKGLEWIGSIVYSGYTYYNPSLKSRVTISVDTSKNQFSLKLSSVTAADTAVYYCARVRTWDQSFDIWGQGTMVTVSS
VL: DIQMTQSPSSLSASVGDRVTITCQAGQDISNYLNWYQQKPGKAPKLLIYDASNLETGVPSRFSGSGSGTDFTFTISSLQPEDIATYYCQQVLELPPWTFGGGTKVEIKR
Which results are given for B1?
binding [1]: binds; binding [2]: binds
